Data: patent publication US20250073680A1, “METHOD OF REGENERATING BIS(IMINOGUANIDINE) CARBON DIOXIDE SORBENTS FROM CARBONATE OR BICARBONATE SALT THEREOF” (UT-Battelle, LLC, priority 2023, published 2025)
Values joined by “and” are separate entries in the source; they are usually repeats but may differ in a detail not shown here. Equal entries are not always repeated.

Legend:
[1] = Initial carbon content by total inorganic carbon analyzer; assay type: physicochemical
[2] = Conductive/convection heating regeneration without steam (oven or reactor baseline); conditions: for time for full regeneration by conductive heating: 10 g
[3] = Direct steam stripping regeneration in DSR reactor; conditions: for time for regeneration by direct steam: 10 g, low-temperature steam 100 C; for mass loss after full regeneration: fully regenerated; for regeneration rate, direct steam vs conductive heating: times faster with steam (times longer/slower with conductive heating); for estimated concentration of regenerated solution: liquid condensate after steam stripping (9.2 mL for MGBIG, 9.6 mL for GBIG)
[4] = CO2 desorption by heating solid within water in a conventional oven
[5] = 10 g within 30 min, direct steam stripping
[6] = Exp #9: 1 g, 30 min, water 180 ml, reactor/steam 130/132 C
[7] = Exp #18: 3 g, 30 min, water 165 ml, reactor/steam 95/100-112 C
[8] = Exp #20: 10 g, 30 min, water 85 ml, reactor/steam 80/101 C
[9] = Exp #2: 5 g, 30 min, water 85 ml, reactor/steam 100/100 C
[10] = Exp #3: 3 g, 30 min, water 10 ml, reactor/steam 96/100 C
[11] = Exp #4: 6 g, 30 min, water 10 ml, reactor/steam 95/100 C
[12] = Exp #5: 10 g, 30 min, water 10 ml, reactor/steam 80/100 C, drain valve open
[13] = Exp #6: 10 g, 20 min, water 115 ml, reactor/steam 88/100 C (no insulation), drain valve open

## N=C(N)N/N=C/C=N/NC(=N)N [GBIG-C, GBIG carbonate]
[1]; Exp #7, Ref
  Solid (Avg % C, n = 2): 6.25±0.98 % C and 6.25 % C
[2]; 130 C, oven
  time for full regeneration by conductive heating: 140 min
[2]; 130 C, oven, listed as GBIG carbonate
  time for full regeneration by conductive heating: 135 min
[2]; Exp #8: 1 g, 30 min, oven, 95 C
  Solid (Avg % C, n = 2): 3.23; % C
[2]; Exp #8: 1 g, 30 min, oven, 105 C
  Solid (Avg % C, n = 2): 2.21; % C
[2]; Exp #8: 1 g, 30 min, oven, 115 C
  Solid (Avg % C, n = 2): 1.91; % C
[2]; Exp #8: 1 g, 30 min, oven, 130 C
  Solid (Avg % C, n = 2): 1.79 % C
[2]; Exp #15: 3 g, 30 min, water 0 ml, reactor/steam 95/64-78 C
  Solid (Avg % C, n = 2): 1.86 % C
[2]; Exp #21: 10 g, 135 min, oven, 130 C
  Solid (Avg % C, n = 2): 0.04 % C
[3]; [5]
  removal efficiency: 99%
[3]
  time for regeneration by direct steam: 30 min
  mass loss after full regeneration: 40%
  regeneration rate, direct steam vs conductive heating: 4.5 times
[3]; [6]
  Liquid Supernatant (molCO2): 0.002/ molCO2
  Liquid [% C] Precipitation [Avg % C, n = 2]: 0.02 % C
  Solid (Avg % C, n = 2): 0.03 % C
[3]; Exp #10: 1 g, 20 min, water 120 ml, reactor/steam 115/118 C
  Solid (Avg % C, n = 2): 0.01 % C
[3]; Exp #11: 1 g, 30 min, water 175 ml, reactor/steam 95-115/100-120 C, triplicate experiments
  Solid (Avg % C, n = 2): 0.06; % C and 0.04; % C and 0.06 % C
[3]; Exp #12: 3 g, 30 min, water 175 ml, reactor/steam 95/100-112 C
  Solid (Avg % C, n = 2): 0.03 % C
[3]; Exp #13: 5 g, 30 min, water 175 ml, reactor/steam 95/100-106 C
  Solid (Avg % C, n = 2): 0.10 % C
[3]; Exp #14: 10 g, 30 min, water 175 ml, reactor/steam 95/100-109 C
  Solid (Avg % C, n = 2): 0.08 % C
[3]; Exp #16: 3 g, 30 min, water 10 ml, reactor/steam 95/72-103 C
  Solid (Avg % C, n = 2): 0.06 % C
[3]; Exp #17: 3 g, 30 min, water 85 ml, reactor/steam 95/98-118 C
  Solid (Avg % C, n = 2): 0.06 % C
[3]; [7]
  Liquid [% C] Precipitation [Avg % C, n = 2]: 0.02 % C
  Solid (Avg % C, n = 2): 0.04 % C
[3]; Exp #19: 10 g, 30 min, water 10 ml, reactor/steam 80/84 C
  Solid (Avg % C, n = 2): 4.22 % C
[3]; Exp #20, 10 g, steam, after cooling
  supernatant solution CO2 content: 0.019 mol CO2/L
[3]; [8]
  Liquid Supernatant (molCO2): 0.02 molCO2
  Liquid [% C] Precipitation [Avg % C, n = 2]: 0.010±0.001 % C and 0.01 % C
  Solid (Avg % C, n = 2): 0.08±0.008 % C and 0.07 % C

## CC(/C=N/NC(=N)N)=N\NC(=N)N [MGBIG-C, methylglyoxal-bis(iminoguanidine) (MGBIG) carbonate]
[1]; Exp #0, Ref
  Solid (Avg % C, n = 2): 4.20±0.05 % C and 4.21 % C
[2]; 5 g, without steam injection, after 1 h of heating, reactor 100 C
  removal efficiency: 88.3%
[2]; Exp #1: 5 g, 60 min, water 0 ml, reactor/steam 100/80 C, no steam injection
  Solid (Avg % C, n = 2): 0.492±0.128 % C and 0.49 % C
[3]; Exp #2, 5 g, steam, after cooling to room temperature
  supernatant solution CO2 content: 0.024 mol CO2/L
[3]; Exp #2, 5 g, steam, based on the carbon amount in the precipitated solid
  removal efficiency: 99.5%
[3]; [9]
  Liquid Supernatant (molCO2): 0.024/ molCO2
  Liquid [% C] Precipitation [Avg % C, n = 2]: 0.018±0.005 % C and 0.02 % C
[3]; [10]
  Liquid Supernatant (molCO2): 0.029/ molCO2
  Liquid [% C] Precipitation [Avg % C, n = 2]: 0.19 % C
[3]; [11]
  Liquid Supernatant (molCO2): 0.023 molCO2
  Liquid [% C] Precipitation [Avg % C, n = 2]: 0.28 % C
  Solid (Avg % C, n = 2): 0.22 % C
[3]; [12]
  Liquid Supernatant (molCO2): 0.032 molCO2
  Liquid [% C] Precipitation [Avg % C, n = 2]: 2.43 % C
[3]; [13]
  Liquid Supernatant (molCO2): 0.025/ molCO2
  Liquid [% C] Precipitation [Avg % C, n = 2]: 2.73 % C
[3]
  mass loss after full regeneration: ~34%
  regeneration rate, direct steam vs conductive heating: at least 3 times
[4]; 1 g in 5 mL of water, 50 C
  state in water at 50 C: remains in a solid state, indicating no regeneration
[4]; solid heated in water in oven
  temperature at which CO2 release was observed: ~78 °C

## CC(/C=N/NC(=N)N)=N\NC(=N)N [MGBIG, methylglyoxal-bis(iminoguanidine)]
[3]
  time for regeneration by direct steam: 30 min
  estimated concentration of regenerated solution: 1.9 M
  regeneration rate, direct steam vs conductive heating: 3.5 times
[3]; small amount (3-6 g), minimal water consumption ~10 mL
  removal efficiency: 93%

## N=C(N)NN=CC=NNC(=N)N [GBIG, glyoxal-bis(iminoguanidine)]
[3]; [5]
  removal efficiency: 99%
[3]
  estimated concentration of regenerated solution: 1.7 M
